Test results as given in US20220033509A1.
No constants are given. Whether binding was seen depends on the method and setting. Some binding calls cover weakened binding; strength is not graded here. One block for each binder: values may come before it.

Sequences of proteins named here, by UniProt entry; tags and fusion partners are left off. Residues count along the entry.
UniProt P15391, residues 20-291: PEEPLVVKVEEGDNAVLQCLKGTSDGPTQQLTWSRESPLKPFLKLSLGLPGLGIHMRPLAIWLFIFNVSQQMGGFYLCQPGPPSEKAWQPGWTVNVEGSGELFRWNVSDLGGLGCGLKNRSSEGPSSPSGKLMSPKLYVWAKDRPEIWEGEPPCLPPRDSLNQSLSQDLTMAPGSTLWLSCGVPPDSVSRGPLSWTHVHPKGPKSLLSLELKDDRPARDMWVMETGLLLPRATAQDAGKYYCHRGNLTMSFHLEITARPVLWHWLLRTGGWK

What was measured:
Recombinant CD19 [1] = target: Recombinant CD19 (UniProt P15391); assay: SPR, Biacore 8K, antibody captured on protein A chip, recombinant CD19 analyte from 500 nM in 2 fold dilutions; the untreated antibody has the lower Rmax
Recombinant CD19 [2] = target: Recombinant CD19 (UniProt P15391); assay: ELISA, recombinant CD19 coated at 1 ug/ml, antibody at 15 ug/ml, anti-human Fc HRP detection; the untreated antibody is the weaker reference
Recombinant CD19 [3] = target: Recombinant CD19 (UniProt P15391); assay: ELISA, recombinant CD19 coated at 1 ug/ml, antibody at 15 ug/ml, with or without prior MMP-9 exposure
Recombinant CD19 [4] = target: Recombinant CD19 (UniProt P15391); assay: SPR, Biacore 8K, antibody captured on protein A chip, recombinant CD19 analyte from 500 nM in 2 fold dilutions
Recombinant CD19 [5] = target: Recombinant CD19 (UniProt P15391); assay: ELISA, recombinant CD19 coated at 1 ug/ml, antibody at 15 ug/ml, anti-human Fc HRP detection
Recombinant CD19 [6] = target: Recombinant CD19 (UniProt P15391); assay: SPR, Biacore 8K, IgG captured at 75 RU on protein A chip, recombinant CD19 analyte from 500 nM in 2 fold dilutions

B2: D8-scrambled-CAT19 soluble antibody with two variable domains and scrambled linker (bispecific antibody, not shown: a dimerising Fc or GST)
heavy: EVQLVESGGGLVQPGRSLKLSCAASGFIFSDYNMAWVRQAPKKGLEWVATIIYDGSSTNHGDSVKGRFTISRDNAKSTLYLQMDSLRSEDTATYYCATRPGPFAYWGQGTLVTVSLALGPGQVQLQQSGPELVKPGASVKISCKASGYAFSSSWMNWVKQRPGKGLEWIGRIYPGDEDTNYSGKFKDKATLTADKSSTTAYMQLSSLTSEDSAVYFCARSLLYGDYLDYWGQGTTLTVSS
light: DVVLTQTPPTLSATIGQSVSISCRSSQSLLHSNGNTYLHWLLQRPGQSPQFLIYLVSGLGSGVPNRFSGSGSGTDFTLKISGVEAEDLGIYYCVHGTHAWTVGGGTKLELKLALGPGQIVLTQSPAIMSASPGEKVTMTCSASSSVSYMHWYQQKSGTSPKRWIYDTSKLASGVPDRFSGSGSGTSYFLTINNMEAEDAATYYCQQWNINPLTFGAGTKLELKR
binding (Recombinant CD19 [3]): binds

B3: D8-MMP9-CAT19 cleaved (soluble antibody after treatment with MMP-9) (antibody, V domains shown, not shown: small tags and cut ends; a dimerising Fc or GST)
VH: QVQLQQSGPELVKPGASVKISCKASGYAFSSSWMNWVKQRPGKGLEWIGRIYPGDEDTNYSGKFKDKATLTADKSSTTAYMQLSSLTSEDSAVYFCARSLLYGDYLDYWGQGTTLTVSS
VL: QIVLTQSPAIMSASPGEKVTMTCSASSSVSYMHWYQQKSGTSPKRWIYDTSKLASGVPDRFSGSGSGTSYFLTINNMEAEDAATYYCQQWNINPLTFGAGTKLELKR
binding (Recombinant CD19 [4]): binds
binding (Recombinant CD19 [5]): binds

Results, then the binder that gave them:

binding (Recombinant CD19 [1]): binds
binding (Recombinant CD19 [2]): binds
B1: D8-MMP9-CAT19 soluble antibody with two variable domains and MMP-9 cleavable linker (untreated) (bispecific antibody, not shown: a dimerising Fc or GST)
heavy: EVQLVESGGGLVQPGRSLKLSCAASGFIFSDYNMAWVRQAPKKGLEWVATIIYDGSSTNHGDSVKGRFTISRDNAKSTLYLQMDSLRSEDTATYYCATRPGPFAYWGQGTLVTVSPLGLAGQVQLQQSGPELVKPGASVKISCKASGYAFSSSWMNWVKQRPGKGLEWIGRIYPGDEDTNYSGKFKDKATLTADKSSTTAYMQLSSLTSEDSAVYFCARSLLYGDYLDYWGQGTTLTVSS
light: DVVLTQTPPTLSATIGQSVSISCRSSQSLLHSNGNTYLHWLLQRPGQSPQFLIYLVSGLGSGVPNRFSGSGSGTDFTLKISGVEAEDLGIYYCVHGTHAWTVGGGTKLELKPLGLAGQIVLTQSPAIMSASPGEKVTMTCSASSSVSYMHWYQQKSGTSPKRWIYDTSKLASGVPDRFSGSGSGTSYFLTINNMEAEDAATYYCQQWNINPLTFGAGTKLELKR

binding (Recombinant CD19 [6]): binds
B4: CD-19 monoclonal antibody (CAT19 IgG) (antibody, V domains shown)
VH: QVQLQQSGPELVKPGASVKISCKASGYAFSSSWMNWVKQRPGKGLEWIGRIYPGDEDTNYSGKFKDKATLTADKSSTTAYMQLSSLTSEDSAVYFCARSLLYGDYLDYWGQGTTLTVSS
VL: QIVLTQSPAIMSASPGEKVTMTCSASSSVSYMHWYQQKSGTSPKRWIYDTSKLASGVPDRFSGSGSGTSYFLTINNMEAEDAATYYCQQWNINPLTFGAGTKLELKR
